Test results as given in the supplement of paper PMC3334620.
Over roughly 33,000 sequences, “E-score (-0.5 to 0.5)” has its median near -0.0034; the highest 2% begin near 0.25. The list shows a part of the results.

molecular target: T1, Yap3 (UniProt P38749); assay: PBM E-score (8-mer binding enrichment) (E-score (-0.5 to 0.5)); higher = stronger / more preferred TF binding; settings: protein concentration: 100 nM; construct: GST-full length
T1 sequence: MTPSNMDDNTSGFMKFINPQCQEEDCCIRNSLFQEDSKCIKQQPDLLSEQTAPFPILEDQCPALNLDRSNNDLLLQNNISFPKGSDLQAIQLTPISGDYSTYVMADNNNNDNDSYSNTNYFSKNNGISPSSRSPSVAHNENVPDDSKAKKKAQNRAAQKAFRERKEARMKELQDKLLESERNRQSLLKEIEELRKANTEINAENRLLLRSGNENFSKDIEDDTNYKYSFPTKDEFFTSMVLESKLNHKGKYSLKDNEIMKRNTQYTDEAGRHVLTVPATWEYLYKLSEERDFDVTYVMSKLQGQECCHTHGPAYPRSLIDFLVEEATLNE
How it was run: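 Universal all-10-mer Agilent arrays, double-stranded by primer extension on fresh or once-stripped slides, were probed with about 100-200 nM GST-tagged yeast transcription factors made by PURExpress. Fluorescent anti-GST detected bound protein, and masliner normalised the scans. E-scores from the Universal PBM Analysis Suite were given to each ungapped eight-base word pooled with its reverse complement.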

Sequence | PBM E-score
AGAAAGCG | 0.0699
ACTTCGGA | 0.193
CCCTATGC | -0.138
AACCACTG | 0.101
AAAAGGAC | 0.0381
ACCGACCC | -0.0819
ACCGCAGT | 0.0979
GAGCCCGA | -0.139
ACCTGAGA | 0.00243
AGCCCGCA | -0.123
AATGATTC | 0.115
CCCTCTAC | -0.199
AAATGCCG | 0.113
CCGAACCA | -0.116
TCGGAGCA | -0.116
ATTGAAGG | -0.141
CCTGTGAC | -0.171
CCGGCATC | -0.253
AAGCTGAC | -0.0841
CAAACGGC | -0.0824
AATAGCGG | -0.0993
GAGTATTA | 0.164
GCAGAGTA | 0.0526
CCTTCGTC | -0.0719
CTCCGCCC | -0.229

Sequence | PBM E-score
GAGATTGC | -0.121
AGCGTAGC | -0.154
ATTCTCGG | 0.147
CTTTGGAC | -0.0335
CAAGCCTA | -0.043
GCACAAGA | 0.116
TCCCGAGA | -0.225
CAAGGTCC | -0.202
AGCTTTCG | -0.263
ACCAACGA | -0.00444
GTCACCAC | -0.0507
GATTACTA | 0.225
AAACCCCG | -0.0402
ACGAGCAT | -0.0172
CCGTACTA | 0.168
GCGGGCTA | -0.216
CACTAGCG | -0.128
CCAGGGTA | -0.165
ACGCTTAC | 0.00604
GGACCAAA | 0.0346
ACGAGTCC | -0.152
GGCCATAC | 0.00964
CCCACTCA | -0.104
CCTAGTTA | 0.0802
CATCGTAG | -0.23

Sequence | PBM E-score
AGGTATCA | 0.0264
ATCTATCC | 0.00162
ATTGTAGC | 0.0224
CATATCAC | 0.114
GTAACCCA | 0.217
AGACTTAG | -0.166
ACGACACG | 0.0948
ACGTTACG | 0.131
TATCCCAA | 0.0252
TACATTGA | 0.0621
AGTTCGGC | -0.053
TATGAGGA | -0.00735
ACTAAGAA | 0.205
AGGAACAA | 0.0752
AATAGCGC | 0.144
CTCCAGCA | -0.129
ATGACCAA | 0.136
AAAGGACC | -0.0983
CTCTGAGC | -0.248
GGTCCACA | -0.153
AACACTCG | 0.117
CTGGCCCC | -0.278
CTACTGGC | 0.00022
GTAGTCAA | -0.0796
CGGGAACC | -0.303

Sequence | PBM E-score
AAGTGTTC | 0.141
AAGTATGA | 0.0367
ATTGCTAC | 0.0125
AAGAGAAT | 0.204
TCGTAAGA | -0.087
GTGTAACA | -0.00489
CCGAACAC | 0.107
ACAAGGTA | 0.0175
AGTTAAAA | 0.221
GCCCCTAC | -0.189
GGATAGCC | -0.0918
ACCTTTAA | 0.0751
GTATATAC | 0.0969
AAACTCCG | 0.031
CATTAAGC | -0.0544
CTGTCATC | -0.0204
TCGACGCA | -0.0607
AGGGTGTA | 0.0414
AGCGCACC | -0.133
GTCGACCA | -0.0665
GATTCACC | 0.00196
ACGGTCGC | -0.175
AGGCTACT | -0.166
GTCATGAA | 0.00827
AATGTGAT | 0.232

Sequence | PBM E-score
CTCGTCCA | 0.0412
AAGATCGA | 0.066
ATGTCGAC | 0.185
GCCTCGCC | -0.246
AAATGAGG | -0.0381
GACCACAC | -0.0615
GACCCCTC | -0.213
GGCCCTAC | -0.264
GCGCGCGC | 0.29
CGGAAGTC | 0.0315
AGCTTTGA | -0.0291
AAAGAGTA | 0.0272
ACCCGGCC | -0.347
CTTTGTGA | -0.053
CCTTCTCA | 0.085
AGGCAACG | -0.012
GATTGGTA | 0.305
CCTGAAAG | -0.0346
ATAAAGTC | 0.133
AGGTTATA | 0.0014
CCTCGAAG | -0.00479
ATACTGAT | 0.169
GCTGAACA | 0.0795
GGCTTCAA | -0.196
CCGTAGTA | -0.0364

Sequence | PBM E-score
AACCCGAT | 0.149
CAGCCGGC | -0.186
CAGGGTAC | -0.163
TACGGTAA | 0.212
CAGCGCTA | 0.00813
CCTGACCC | -0.198
CTAACCAA | 0.046
AGAAGGCT | -0.169
GGGAGTGA | -0.0816
CTCGCGGC | -0.182
AGCCGCCC | -0.112
CTATACTC | 0.0165
AGTGAGTG | -0.0641
CGATTCCC | 0.177
AATTCTTG | 0.101
AGTCGCAC | -0.233
ACAAAATA | 0.175
ACTCTAAC | 0.0588
GATGAATC | 0.088
CGTGTAGC | -0.103
CCGAACAG | -0.0176
AACGCCTG | -0.0935
CACTTACG | 0.123
CCATAAAA | 0.0885
ACAATATG | 0.238

Sequence | PBM E-score
ACATCACC | -0.0572
TCACAGAA | 0.0283
GACAGCCA | -0.00244
AATATATT | 0.331
CTTGAACC | 0.0903
CGCCCAAA | -0.0448
CAACCCGC | -0.0462
AACGACGC | -0.0529
ATCCCTTC | -0.0465
ACTCTCCA | -0.0772
GCCAGTGA | -0.205
CGCTGAAC | -0.0734
CGGGACGC | -0.24
AAGAGCTC | -0.251
ACAACTGT | -0.0422
CTAGCATC | -0.105
CACCTAGG | -0.0458
AAGTGCAG | -0.235
ACCCGATC | 0.026
ATCCCAAT | 0.0688
AGAGCGCA | -0.143
AACTCGAC | 0.127
AGTGCCTA | -0.171
ACTGCGAG | -0.0673
AATTTGGG | 0.194

Nothing new here: entries from further up.
Sequence | PBM E-score
TCACAGAA | 0.0283
GACAGCCA | -0.00244

The results go on.

Sequence | PBM E-score
AGTCAATC | 0.00332
AAGAGGGT | -0.251
AGGAACGC | -0.0473
GAGCATTA | 0.0912
CTTTCGGA | -0.0976
AGGTCTCC | -0.0939
CAATAGAA | 0.0522
ACTACACC | -0.0367
CTCTCTAA | -0.149
CTGAGCCC | -0.354
ATCTCCTA | -0.0776
GTGGCAAA | -0.145
ATGGGGGG | -0.351
ACGTGCAC | 0.0895
GCCTGAGC | -0.197
ACTACGGG | -0.184
AGCGAGCG | 0.0566
GATATTAA | 0.212
GATCTTAC | 0.0656
GACACGTC | -0.209
CTTCAAGA | 0.036
AATACACG | 0.0582
AGCCCTCC | -0.235
CGAGGCGA | 0.0455
CGACATGC | 0.0571

Pulled one by one from the list above (6):
Sequence | PBM E-score
AATACACG | 0.0582
AGGTCTCC | -0.0939
AGGAACGC | -0.0473
GCCTGAGC | -0.197
AAGAGGGT | -0.251
CTTTCGGA | -0.0976

Following part:

Sequence | PBM E-score
AGTTACGA | 0.213
AGGCGGAC | -0.0486
AACTTTAG | 0.0879
CTCTCTTC | -0.181
AAGCTCAA | -0.178
GCTGAAGC | -0.139
CTTGCCTA | -0.108
AGACTGAC | -0.124
ACTGGGCT | -0.239
GTTAAGGA | -0.0357
AGTAATTG | 0.164
AGTTCGTC | 0.0313
CACCGGCA | -0.0569
CTGCGTCA | -0.056
CGCGTCCC | -0.133
ATTGCCTA | -0.168
ATGTATAG | 0.168
ACGCTCCG | -0.22
GATCTTAA | 0.116

Copied from the list.
PBM E-score, CACCGGCA reads -0.0569
PBM E-score, AACTTTAG reads 0.0879
PBM E-score, AGTTCGTC reads 0.0313
PBM E-score, CTGCGTCA reads -0.056
PBM E-score, ATTGCCTA reads -0.168
